From US20150093336A1 (VIB VZW, published 2015)
Results are given in words; binding and its absence hold for the method and conditions named.

Columns and labels:
[1] = molecular target: T1, Human macrophage mannose receptor (MMR) expressed on human immature monocyte-derived dendritic cells (human) (UniProt P22897); assay: flow cytometry on CD11c+ human immature dendritic cells, anti-HA detection
T1 sequence: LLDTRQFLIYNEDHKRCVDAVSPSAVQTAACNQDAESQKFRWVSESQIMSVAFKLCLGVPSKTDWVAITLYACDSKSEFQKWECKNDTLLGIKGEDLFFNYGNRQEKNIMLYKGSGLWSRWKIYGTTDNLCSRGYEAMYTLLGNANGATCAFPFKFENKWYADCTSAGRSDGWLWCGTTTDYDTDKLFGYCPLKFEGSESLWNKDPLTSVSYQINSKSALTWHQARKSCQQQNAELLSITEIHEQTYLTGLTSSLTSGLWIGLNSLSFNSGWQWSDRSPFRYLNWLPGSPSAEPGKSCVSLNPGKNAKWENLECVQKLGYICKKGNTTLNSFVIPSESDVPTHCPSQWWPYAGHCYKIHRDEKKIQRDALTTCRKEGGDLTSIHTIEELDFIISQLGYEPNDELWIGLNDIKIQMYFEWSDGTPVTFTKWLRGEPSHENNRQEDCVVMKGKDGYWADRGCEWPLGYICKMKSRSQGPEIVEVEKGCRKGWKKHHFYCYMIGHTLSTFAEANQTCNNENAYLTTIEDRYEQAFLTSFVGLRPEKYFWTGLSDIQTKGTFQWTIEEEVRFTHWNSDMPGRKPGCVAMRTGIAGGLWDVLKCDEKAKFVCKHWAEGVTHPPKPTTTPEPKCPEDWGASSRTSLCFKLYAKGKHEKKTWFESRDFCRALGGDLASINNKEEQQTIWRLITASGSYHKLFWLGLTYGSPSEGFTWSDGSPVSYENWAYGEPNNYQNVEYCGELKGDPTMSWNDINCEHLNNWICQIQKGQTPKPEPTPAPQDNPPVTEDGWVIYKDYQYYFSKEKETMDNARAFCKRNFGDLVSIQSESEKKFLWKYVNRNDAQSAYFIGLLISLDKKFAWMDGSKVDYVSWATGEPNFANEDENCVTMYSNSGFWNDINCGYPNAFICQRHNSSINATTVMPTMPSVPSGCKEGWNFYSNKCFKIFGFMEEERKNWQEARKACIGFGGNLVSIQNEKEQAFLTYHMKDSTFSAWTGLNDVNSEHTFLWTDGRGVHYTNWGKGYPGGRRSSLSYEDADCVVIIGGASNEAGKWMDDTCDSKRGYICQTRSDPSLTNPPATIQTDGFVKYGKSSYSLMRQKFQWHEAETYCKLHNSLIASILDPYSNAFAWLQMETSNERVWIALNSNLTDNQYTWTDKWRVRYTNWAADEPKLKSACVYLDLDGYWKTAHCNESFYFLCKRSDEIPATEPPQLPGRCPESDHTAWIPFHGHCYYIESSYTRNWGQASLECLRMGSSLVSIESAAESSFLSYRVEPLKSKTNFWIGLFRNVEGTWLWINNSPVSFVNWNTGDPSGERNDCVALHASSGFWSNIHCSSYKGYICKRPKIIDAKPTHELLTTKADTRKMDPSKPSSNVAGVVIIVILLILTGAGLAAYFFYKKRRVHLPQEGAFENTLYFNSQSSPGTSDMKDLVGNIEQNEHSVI

[2] = molecular target: T1, Human macrophage mannose receptor (MMR) expressed on human immature monocyte-derived dendritic cells (human); assay: condition: 10 µg/ml (from paragraph 134; no concentration on the sheet); flow cytometry on CD11c+ human immature monocyte-derived dendritic cells, HA-tagged Nb detected with Alexa Fluor 488 anti-HA

B1: anti-mouse MMR sdAb clone 1 (VHH)
VHH: QVQLQESGGGLVQPGGSLRLSCAASGNIFSINAIGWYRQAPGKQRELVATITLSGSTNYADSVKGRFSISRDNAKNTVYLQMNSLKPEDTAVYYCNANTYSDSDVYGYWGQGTQVTVSS
notes: also called anti-mMMR Nb clone 1; anti-mouse MMR clone 1
With B1 as the binder, how does the binding [1] read?
The binding was “no binding (tested: 10 ug/ml)”.

What about the binding [2] of the same binder?
The binding was “no binding”.
